PubChem BioAssay AID1259405 – NCATS – 2018
Screen: 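Knock-downs that lift recombinant protein yield in hamster ovary cells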 (primary screen). Cell system: Chinese hamster CHO-K1 ovary cells with stable secreted eGFP expression. Knock-down reagent: single siRNA against mouse genes, 0.8 pmol siRNA per well (2 µl of 400 nM stock). Duration: 3 days. Read-out: 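Per-well intracellular GFP measured by laser scanning cytometry, plus viability from ATP luminescence, each relative to plate median of non-targeting control wells, in %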. Reading the numbers: GFP, % of control: higher = more GFP per well, higher productivity; viability (ATP), % of control: higher = more viable cells (more ATP). Hit rule: 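a knock-down is called active if GFP reaches 120% or more of non-targeting control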.
Shown is one part, drawn at random, of about 50,000 deposited reagents. About 4,000 of all reagents (8%) were called active. 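Mouse siRNA library applied to hamster cells; one well for each siRNA.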 Unmarked entries are inactive. The numbers tell different reagents against one gene apart. Reagent sequences are not shown.

gene	siRNA no.	GFP, % of control	viability (ATP), % of control
Onecut3 (GeneID 246086)	1	67.3	74.4
Onecut3 (GeneID 246086)	2	64.2	79
Onecut3 (GeneID 246086)	3	79.7	76
Cck (GeneID 12424)	1	33.2	39
Cck (GeneID 12424)	2	47.8	36.8
Cck (GeneID 12424)	3	64.2	68.8
Sval1 (GeneID 71578)	1	127 (active)	85.5
Sval1 (GeneID 71578)	2	112	113
Sval1 (GeneID 71578)	3	154 (active)	141
Gnmt (GeneID 14711)	1	105	86.5
Gnmt (GeneID 14711)	2	123 (active)	87.4
Gcg (GeneID 14526)	1	46.5	41.2
Gcg (GeneID 14526)	2	93.2	71.6
Gcg (GeneID 14526)	3	143 (active)	49.1
Per3 (GeneID 18628)	1	125 (active)	42
Per3 (GeneID 18628)	2	42	51.9
Per3 (GeneID 18628)	3	73.2	101
Slc22a19 (GeneID 207151)	1	85.2	43.9
Slc22a19 (GeneID 207151)	2	63.2	49.3
Slc22a19 (GeneID 207151)	3	69	91.7
Cox7b2 (GeneID 78174)	1	51.7	52.6
Cox7b2 (GeneID 78174)	2	129 (active)	68.5
Cox7b2 (GeneID 78174)	3	110	100
Acaca (GeneID 107476)	1	70.6	66.8
Acaca (GeneID 107476)	2	75.6	57.4
Acaca (GeneID 107476)	3	73.7	86.6
Mapk1ip1l (GeneID 218975)	1	35.2	64
Mapk1ip1l (GeneID 218975)	2	71.5	70.8
Mapk1ip1l (GeneID 218975)	3	127 (active)	138
Otub1 (GeneID 107260)	1	78.3	87.9
Otub1 (GeneID 107260)	2	100	74.4
Ppp1r14b (GeneID 18938)	1	150 (active)	66.6
Ppp1r14b (GeneID 18938)	2	76.6	77.2
Ppp1r14b (GeneID 18938)	3	80.4	67.5
St6galnac5 (GeneID 26938)	1	110	112
St6galnac5 (GeneID 26938)	2	82.6	87.8
St6galnac5 (GeneID 26938)	3	0.00935	81.7
Csnk1e (GeneID 27373)	1	53.6	52.4
Klhl1 (GeneID 93688)	1	29.7	25.6
Klhl1 (GeneID 93688)	2	86.4	82.2
Slc26a6 (GeneID 171429)	1	61.6	63.9
Slc26a6 (GeneID 171429)	2	74.3	69.1
Slc26a6 (GeneID 171429)	3	67.9	88.5
Ccdc184 (GeneID 239650)	1	32.3	41.4
Ccdc184 (GeneID 239650)	2	37.5	55.1
Ccdc184 (GeneID 239650)	3	37.5	40.9
Glrb (GeneID 14658)	1	97.1	71.9
Glrb (GeneID 14658)	2	43.1	64.1
Glrb (GeneID 14658)	3	38.7	39.4
Abcc2 (GeneID 12780)	1	121 (active)	86.3
Abcc2 (GeneID 12780)	2	50	53.8
Abcc2 (GeneID 12780)	3	50.8	70.4
Snx6 (GeneID 72183)	1	73.7	75.9
Snx6 (GeneID 72183)	2	93	84.6
Snx6 (GeneID 72183)	3	88.4	71.1
Vstm5 (GeneID 69137)	1	47.6	45.2
Vstm5 (GeneID 69137)	2	134 (active)	99.7
Vstm5 (GeneID 69137)	3	69.9	101
Sntg2 (GeneID 268534)	1	99.2	94.7
Sntg2 (GeneID 268534)	2	78.3	56.1
Osbpl9 (GeneID 100273)	1	66.6	74.1
Osbpl9 (GeneID 100273)	2	92.9	74.9
Osbpl9 (GeneID 100273)	3	193 (active)	165
Slc28a2 (GeneID 269346)	1	104	99.4
Slc28a2 (GeneID 269346)	2	36	70.3
Slc28a2 (GeneID 269346)	3	156 (active)	89
Mettl28 (GeneID 72658)	1	51.6	27
Mettl28 (GeneID 72658)	2	61.8	54
Mettl28 (GeneID 72658)	3	80	83.8
Srsf4 (GeneID 57317)	1	110	107
Srsf4 (GeneID 57317)	2	83	69
Srsf4 (GeneID 57317)	3	43.8	47.1
Smr2 (GeneID 20600)	1	57.8	48.7
Smr2 (GeneID 20600)	2	69.3	60.6
Smr2 (GeneID 20600)	3	35.4	57.4
Was (GeneID 22376)	1	68.1	58.2
Was (GeneID 22376)	2	42.7	58.2
Was (GeneID 22376)	3	70.4	79.3
Irx5 (GeneID 54352)	1	48.5	77.1
Irx5 (GeneID 54352)	2	68.4	76.6
Irx5 (GeneID 54352)	3	85.1	98.4
Ifi44l (GeneID 15061)	1	65.3	78.7
Ifi44l (GeneID 15061)	2	96.9	83.6
Ifi44l (GeneID 15061)	3	67.7	92

Reprinted from the listing for reference:
gene	siRNA no.	GFP, % of control	viability (ATP), % of control
Srsf4 (GeneID 57317)	2	83	69
Srsf4 (GeneID 57317)	3	43.8	47.1
Smr2 (GeneID 20600)	1	57.8	48.7
Smr2 (GeneID 20600)	2	69.3	60.6
Smr2 (GeneID 20600)	3	35.4	57.4
Was (GeneID 22376)	1	68.1	58.2
Was (GeneID 22376)	2	42.7	58.2
Was (GeneID 22376)	3	70.4	79.3
Irx5 (GeneID 54352)	1	48.5	77.1
Irx5 (GeneID 54352)	2	68.4	76.6
Irx5 (GeneID 54352)	3	85.1	98.4
